For at least one compound, name, drawing or mass did not settle the structure.
How the values were obtained:
Format in all cases: biochemical
Settings in all cases: ratio of Ki of Example 1 to Ki of Example 2
[1] = biological target: PgQC (Porphyromonas gingivalis, UniProt Q7MT37); assay: Inhibitor assay for bacterial glutaminyl cyclase activity (fluorometric, H-Gln-AMC), PgQC
Method: (§1) QC activity was evaluated using H-Gln-AMC as the substrate (as previously described in Schilling et al., 2002).
(§2) The assay consists of varying concentration of the fluorogenic substrate and 0.5 U pyroglutaminyl aminopeptidase in 50 mM Tris-HCl, 50 mM NaCl at pH 8.0. After 10 minute incubation time at 30° C. reaction was initiated by addition of bacQC to a final volume of 125 μl reaction mixture. The excitation/emission wavelength was 380/460 nm. bacQC activity was determined from a standard curve of the fluorophore AMC under assay conditions. All determinations were carried out in 96 well microtiter plates (Fisher Scientific) at 30° C. using the FluoStar Optima (BMG Labtech).
For inhibitor testing, the sample composition was the same as described above, except for the addition of the putative inhibitory compound. […] Inhibitory constants were determined using different concentration of H-Gln-AMC varying from ¼ Km-2 Km. Final concentration of bacterial QC was in a range between 25 nM-50 nM. […]
(§3) The following compounds were synthesized as described in the Description of synthetic methods below. Average Ki values for the inhibition of PgQC (isolated and purified as described above), TfQC, PiQC and hQC were measured using the above inhibitor assay and are shown in. Ki refers to the average Ki values measured as described above, and Std(Ki) refers to the standard deviation of Ki.

By UniProt entry, the sequences of proteins in these tests, tags left out. Residues count along the entry.
UniProt Q7MT37, 22-333 limits assumed: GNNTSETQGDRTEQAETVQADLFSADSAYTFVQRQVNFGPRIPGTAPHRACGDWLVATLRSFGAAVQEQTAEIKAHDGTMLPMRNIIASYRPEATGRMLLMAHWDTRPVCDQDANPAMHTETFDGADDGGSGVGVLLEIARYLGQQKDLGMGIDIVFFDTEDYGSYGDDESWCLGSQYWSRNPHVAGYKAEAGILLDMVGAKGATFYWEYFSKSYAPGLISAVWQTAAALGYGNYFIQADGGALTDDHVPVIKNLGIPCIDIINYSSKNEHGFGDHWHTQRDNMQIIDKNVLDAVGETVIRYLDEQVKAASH
UniProt G8UMP8, 20-333 limits assumed: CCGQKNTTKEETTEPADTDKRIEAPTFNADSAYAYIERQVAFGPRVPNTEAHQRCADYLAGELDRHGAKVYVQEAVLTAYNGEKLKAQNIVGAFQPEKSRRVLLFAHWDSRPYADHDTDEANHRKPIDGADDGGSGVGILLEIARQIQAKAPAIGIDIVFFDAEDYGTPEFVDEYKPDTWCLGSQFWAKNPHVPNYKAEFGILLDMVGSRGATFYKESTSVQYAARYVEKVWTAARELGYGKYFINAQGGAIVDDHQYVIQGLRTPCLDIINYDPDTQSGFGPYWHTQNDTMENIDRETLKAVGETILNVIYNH
UniProt Q16769, 29-361: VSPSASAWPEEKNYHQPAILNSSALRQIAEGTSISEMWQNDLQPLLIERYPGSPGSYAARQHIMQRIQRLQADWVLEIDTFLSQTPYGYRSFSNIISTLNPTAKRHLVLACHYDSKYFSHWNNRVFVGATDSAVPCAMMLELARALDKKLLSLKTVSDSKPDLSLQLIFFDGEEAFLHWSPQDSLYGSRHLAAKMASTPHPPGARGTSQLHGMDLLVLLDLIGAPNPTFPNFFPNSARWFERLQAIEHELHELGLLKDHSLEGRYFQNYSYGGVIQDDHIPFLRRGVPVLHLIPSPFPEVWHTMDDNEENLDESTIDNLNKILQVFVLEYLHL

[2] = biological target: TfQC (Tannerella forsythia, UniProt G8UMP8); assay: Inhibitor assay for bacterial glutaminyl cyclase activity (fluorometric, H-Gln-AMC), TfQC
Method: as §1, §2
(§4) For inhibitor testing, the sample composition was the same as described above, except for the addition of the putative inhibitory compound. […] Inhibitory constants were determined using different concentration of H-Gln-AMC varying from ¼ Km-2 Km. Final concentration of bacterial QC was in a range between 25 nM-50 nM.
as §3

[3] = biological target: PiQC (Prevotella intermedia, UniProt A0A3R7XL21, I314V/V166A); assay: Inhibitor assay for bacterial glutaminyl cyclase activity (fluorometric, H-Gln-AMC), PiQC
[4] = biological target: hQC (Homo sapiens (Human), UniProt Q16769); assay: Inhibitor assay for glutaminyl cyclase activity (fluorometric, H-Gln-AMC), hQC
Method: as §1, §2, §4, §3

c1ccc(CNc2cnc3[nH]cnc3c2)cc1 [Example 2, N-Benzylimidazo[4,5-b]pyridin-6-amine]
relative inhibitory activity [Ki(Example 1)]/[Ki(Example 2)], PgQC [1]: 13
relative inhibitory activity [Ki(Example 1)]/[Ki(Example 2)], TfQC [2]: 5.9
relative inhibitory activity [Ki(Example 1)]/[Ki(Example 2)], PiQC [3]: 4.8
relative inhibitory activity [Ki(Example 1)]/[Ki(Example 2)], hQC [4]: 6.9
